One assay has as its target Cav1.3 (Homo sapiens, UniProt Q01668). The assay can be described thus: cell-based. To be noted: read-out: % remaining current at 3 μM (1 Hz). Also on record: gene CACNA1D.
For another assay, the target named is Cav1.2 (Homo sapiens, UniProt Q13936). Nature of the assay: cell-based. To be noted: read-out: % remaining current at 3 μM (1 Hz). On the set-up: gene CACNA1C.

Protein sequences, listed by entry. Tags and fused reporters are not part of them.
UniProt Q01668, whole entry: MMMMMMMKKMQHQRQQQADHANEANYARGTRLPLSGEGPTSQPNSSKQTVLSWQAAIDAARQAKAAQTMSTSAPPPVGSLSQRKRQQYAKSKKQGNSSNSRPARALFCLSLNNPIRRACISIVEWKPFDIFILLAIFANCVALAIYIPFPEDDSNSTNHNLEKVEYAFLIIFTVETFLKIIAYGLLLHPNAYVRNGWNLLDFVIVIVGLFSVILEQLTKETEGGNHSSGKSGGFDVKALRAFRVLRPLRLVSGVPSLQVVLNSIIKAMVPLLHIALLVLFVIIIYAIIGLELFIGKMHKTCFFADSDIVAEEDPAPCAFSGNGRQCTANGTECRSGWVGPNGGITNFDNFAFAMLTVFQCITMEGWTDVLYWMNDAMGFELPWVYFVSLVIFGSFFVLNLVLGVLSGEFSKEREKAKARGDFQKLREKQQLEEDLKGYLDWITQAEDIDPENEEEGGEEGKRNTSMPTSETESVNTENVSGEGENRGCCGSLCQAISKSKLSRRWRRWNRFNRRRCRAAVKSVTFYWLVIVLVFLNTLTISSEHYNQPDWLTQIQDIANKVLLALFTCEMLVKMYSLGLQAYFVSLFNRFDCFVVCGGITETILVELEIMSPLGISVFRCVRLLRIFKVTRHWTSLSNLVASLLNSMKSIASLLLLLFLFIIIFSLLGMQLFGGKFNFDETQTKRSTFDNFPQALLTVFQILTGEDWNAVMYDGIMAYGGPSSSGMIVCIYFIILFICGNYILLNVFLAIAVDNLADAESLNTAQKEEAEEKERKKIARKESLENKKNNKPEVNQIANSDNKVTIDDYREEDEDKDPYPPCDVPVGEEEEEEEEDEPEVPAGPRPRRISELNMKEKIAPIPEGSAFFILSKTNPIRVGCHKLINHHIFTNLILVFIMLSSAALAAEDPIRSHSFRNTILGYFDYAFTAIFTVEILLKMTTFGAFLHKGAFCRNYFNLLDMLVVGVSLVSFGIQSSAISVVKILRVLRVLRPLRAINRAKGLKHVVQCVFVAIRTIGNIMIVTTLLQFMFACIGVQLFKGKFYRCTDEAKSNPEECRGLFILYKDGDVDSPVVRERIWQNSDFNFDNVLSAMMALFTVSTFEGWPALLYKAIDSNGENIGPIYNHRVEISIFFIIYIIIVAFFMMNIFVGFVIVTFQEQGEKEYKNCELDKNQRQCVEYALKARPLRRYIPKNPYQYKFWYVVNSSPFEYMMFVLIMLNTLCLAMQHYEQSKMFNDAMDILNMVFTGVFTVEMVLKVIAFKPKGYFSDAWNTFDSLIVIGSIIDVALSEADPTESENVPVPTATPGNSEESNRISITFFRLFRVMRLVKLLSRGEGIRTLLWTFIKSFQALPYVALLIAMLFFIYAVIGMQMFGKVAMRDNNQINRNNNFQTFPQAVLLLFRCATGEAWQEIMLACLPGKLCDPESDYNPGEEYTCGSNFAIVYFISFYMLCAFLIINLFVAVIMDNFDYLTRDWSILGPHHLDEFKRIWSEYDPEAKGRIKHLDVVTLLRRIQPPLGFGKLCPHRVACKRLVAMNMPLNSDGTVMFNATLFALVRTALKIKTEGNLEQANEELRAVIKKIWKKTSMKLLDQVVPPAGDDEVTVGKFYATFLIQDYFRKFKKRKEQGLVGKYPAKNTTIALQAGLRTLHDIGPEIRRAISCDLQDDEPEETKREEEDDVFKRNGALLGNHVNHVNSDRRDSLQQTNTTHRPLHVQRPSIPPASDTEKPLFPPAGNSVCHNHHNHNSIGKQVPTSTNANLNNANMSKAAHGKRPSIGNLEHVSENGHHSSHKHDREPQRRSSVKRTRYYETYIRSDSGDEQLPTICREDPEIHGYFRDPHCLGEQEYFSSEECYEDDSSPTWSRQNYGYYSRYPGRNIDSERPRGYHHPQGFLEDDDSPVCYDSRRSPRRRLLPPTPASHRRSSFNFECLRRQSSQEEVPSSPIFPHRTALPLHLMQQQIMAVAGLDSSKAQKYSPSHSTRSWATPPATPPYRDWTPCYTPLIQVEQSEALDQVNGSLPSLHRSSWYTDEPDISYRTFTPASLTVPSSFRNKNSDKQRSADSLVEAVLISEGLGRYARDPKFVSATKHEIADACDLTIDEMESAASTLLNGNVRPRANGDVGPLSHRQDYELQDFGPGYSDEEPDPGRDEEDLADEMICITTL
UniProt Q13936, whole entry: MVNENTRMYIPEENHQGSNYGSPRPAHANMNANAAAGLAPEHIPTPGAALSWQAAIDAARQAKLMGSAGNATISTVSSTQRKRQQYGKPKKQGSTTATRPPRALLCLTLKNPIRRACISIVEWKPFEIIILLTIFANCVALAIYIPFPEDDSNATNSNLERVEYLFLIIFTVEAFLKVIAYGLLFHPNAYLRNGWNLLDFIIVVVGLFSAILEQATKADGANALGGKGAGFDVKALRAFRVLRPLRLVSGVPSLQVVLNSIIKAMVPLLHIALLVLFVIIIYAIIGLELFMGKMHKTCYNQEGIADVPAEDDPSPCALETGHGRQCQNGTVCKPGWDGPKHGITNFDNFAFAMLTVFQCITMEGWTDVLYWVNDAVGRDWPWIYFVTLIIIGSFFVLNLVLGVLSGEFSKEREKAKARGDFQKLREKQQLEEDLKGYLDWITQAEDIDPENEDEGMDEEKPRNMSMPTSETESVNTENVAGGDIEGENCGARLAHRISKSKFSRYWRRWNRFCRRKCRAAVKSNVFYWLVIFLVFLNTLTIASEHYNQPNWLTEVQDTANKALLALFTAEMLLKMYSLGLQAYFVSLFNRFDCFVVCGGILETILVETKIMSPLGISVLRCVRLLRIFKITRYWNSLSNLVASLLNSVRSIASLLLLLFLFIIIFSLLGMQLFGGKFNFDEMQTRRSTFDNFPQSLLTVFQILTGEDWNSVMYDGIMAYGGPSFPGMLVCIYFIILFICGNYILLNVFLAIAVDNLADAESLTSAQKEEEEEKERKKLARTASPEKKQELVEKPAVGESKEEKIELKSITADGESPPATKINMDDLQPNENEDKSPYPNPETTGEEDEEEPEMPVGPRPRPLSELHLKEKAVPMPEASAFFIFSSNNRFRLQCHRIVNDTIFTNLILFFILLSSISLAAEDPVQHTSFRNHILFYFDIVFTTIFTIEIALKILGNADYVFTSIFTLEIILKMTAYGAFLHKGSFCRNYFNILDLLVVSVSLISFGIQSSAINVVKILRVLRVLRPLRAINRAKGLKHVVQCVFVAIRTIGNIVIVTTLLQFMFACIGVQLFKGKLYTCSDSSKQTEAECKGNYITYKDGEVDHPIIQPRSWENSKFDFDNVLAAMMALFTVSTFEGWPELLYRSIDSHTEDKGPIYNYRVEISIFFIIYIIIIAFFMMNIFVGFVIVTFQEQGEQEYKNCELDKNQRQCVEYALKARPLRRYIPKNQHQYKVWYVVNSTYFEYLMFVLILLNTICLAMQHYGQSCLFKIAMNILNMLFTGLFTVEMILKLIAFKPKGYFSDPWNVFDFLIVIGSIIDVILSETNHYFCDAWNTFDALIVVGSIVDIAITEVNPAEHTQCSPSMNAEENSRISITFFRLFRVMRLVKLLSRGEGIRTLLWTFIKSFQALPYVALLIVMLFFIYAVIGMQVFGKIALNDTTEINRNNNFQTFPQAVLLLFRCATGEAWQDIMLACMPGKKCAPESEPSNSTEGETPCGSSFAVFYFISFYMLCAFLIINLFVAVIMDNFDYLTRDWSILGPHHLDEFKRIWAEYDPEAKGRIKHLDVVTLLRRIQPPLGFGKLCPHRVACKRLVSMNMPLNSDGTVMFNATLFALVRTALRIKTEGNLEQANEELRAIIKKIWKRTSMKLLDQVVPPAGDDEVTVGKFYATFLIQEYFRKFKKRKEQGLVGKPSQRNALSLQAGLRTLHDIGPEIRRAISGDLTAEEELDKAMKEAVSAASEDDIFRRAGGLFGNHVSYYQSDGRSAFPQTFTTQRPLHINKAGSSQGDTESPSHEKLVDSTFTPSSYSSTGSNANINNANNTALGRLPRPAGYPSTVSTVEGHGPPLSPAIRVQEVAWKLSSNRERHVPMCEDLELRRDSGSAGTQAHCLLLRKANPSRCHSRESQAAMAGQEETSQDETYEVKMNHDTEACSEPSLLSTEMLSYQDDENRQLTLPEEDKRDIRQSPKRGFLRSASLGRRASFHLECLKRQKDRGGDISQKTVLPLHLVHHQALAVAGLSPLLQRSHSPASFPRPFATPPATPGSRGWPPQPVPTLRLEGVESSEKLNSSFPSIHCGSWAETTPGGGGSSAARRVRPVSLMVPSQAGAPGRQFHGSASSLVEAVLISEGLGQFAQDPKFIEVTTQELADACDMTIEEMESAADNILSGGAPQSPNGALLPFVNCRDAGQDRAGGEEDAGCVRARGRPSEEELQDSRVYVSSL

For the molecule `C(=C\c1ccccc1)/CN1CCN(C(c2ccccc2)c2ccccc2)CC1` [cinnarizine], the values for the remaining activity at 3 µM at Cav1.3 and on Cav1.2 were 16.8 ± 3.9% and 35.6 ± 12.4%, respectively.
